Test results reported in paper PMC7607384.
Results are given in words; binding and its absence hold for the method and conditions named. In cells and extracts the contact can be indirect. Some binding calls cover weakened binding; strength is not graded here. Where a sequence is shown, tags or fusion partners need not be part of it.

Legend:
Flag-MTG16 = biological target: T1, Flag-MTG16 (UniProt O75081); assay: co-IP; HEK293T lysates (150 mM NaCl, 30 mM Tris pH 7.5, 1 mM EDTA, 1% Triton X-100, 10% glycerol, 0.5 mM DTT), precleared with IgG-agarose; Flag complexes precipitated with anti-Flag-M2 affinity beads at 4°C overnight; western blot
T1 sequence: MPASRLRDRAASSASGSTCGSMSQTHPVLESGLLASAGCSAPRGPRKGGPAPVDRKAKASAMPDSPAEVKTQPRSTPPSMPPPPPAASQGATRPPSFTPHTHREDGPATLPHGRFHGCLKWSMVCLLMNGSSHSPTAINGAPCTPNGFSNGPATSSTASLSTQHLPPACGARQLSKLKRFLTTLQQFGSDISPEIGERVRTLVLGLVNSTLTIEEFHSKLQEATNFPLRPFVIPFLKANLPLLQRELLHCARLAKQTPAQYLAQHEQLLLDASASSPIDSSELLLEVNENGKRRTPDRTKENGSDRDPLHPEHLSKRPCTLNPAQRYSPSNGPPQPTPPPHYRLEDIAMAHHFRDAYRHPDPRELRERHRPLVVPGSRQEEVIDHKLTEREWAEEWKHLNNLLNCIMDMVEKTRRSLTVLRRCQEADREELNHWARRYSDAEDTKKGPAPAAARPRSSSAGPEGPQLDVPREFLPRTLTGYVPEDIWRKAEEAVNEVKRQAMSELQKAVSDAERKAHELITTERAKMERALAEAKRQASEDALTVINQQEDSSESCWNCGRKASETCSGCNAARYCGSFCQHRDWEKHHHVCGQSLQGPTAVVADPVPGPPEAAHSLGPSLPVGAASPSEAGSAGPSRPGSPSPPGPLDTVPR

Flag-MTG8 = biological target: T2, Flag-MTG8 (UniProt Q06455); assay: as above
T2 sequence: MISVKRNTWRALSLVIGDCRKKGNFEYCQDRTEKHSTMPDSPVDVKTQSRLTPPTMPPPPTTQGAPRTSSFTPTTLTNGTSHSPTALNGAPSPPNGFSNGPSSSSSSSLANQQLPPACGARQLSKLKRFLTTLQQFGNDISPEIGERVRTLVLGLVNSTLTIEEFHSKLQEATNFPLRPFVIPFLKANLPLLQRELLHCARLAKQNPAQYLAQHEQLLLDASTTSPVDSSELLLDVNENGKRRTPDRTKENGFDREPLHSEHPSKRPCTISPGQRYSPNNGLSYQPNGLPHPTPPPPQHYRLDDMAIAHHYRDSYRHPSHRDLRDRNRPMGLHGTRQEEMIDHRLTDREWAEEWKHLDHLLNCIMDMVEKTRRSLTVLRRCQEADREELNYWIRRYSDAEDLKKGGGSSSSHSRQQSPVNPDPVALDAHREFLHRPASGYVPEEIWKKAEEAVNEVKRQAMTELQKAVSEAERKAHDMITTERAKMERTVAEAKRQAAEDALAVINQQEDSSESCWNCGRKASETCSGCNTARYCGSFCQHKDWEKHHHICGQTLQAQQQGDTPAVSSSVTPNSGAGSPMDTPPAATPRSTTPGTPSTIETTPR

binding (Flag-MTG16): binds
binding (Flag-MTG8): binds
B1: ATOH1 (protein, UniProt Q92858 1-354)
chain: MSRLLHAEEWAEVKELGDHHRQPQPHHLPQPPPPPQPPATLQAREHPVYPPELSLLDSTDPRAWLAPTLQGICTARAAQYLLHSPELGASEAAAPRDEVDGRGELVRRSSGGASSSKSPGPVKVREQLCKLKGGVVVDELGCSRQRAPSSKQVNGVQKQRRLAANARERRRMHGLNHAFDQLRNVIPSFNNDKKLSKYETLQMAQIYINALSELLQTPSGGEQPPPPPASCKSDHHHLRTAASYEGGAGNATAAGAQQASGGSQRPTPPGSCRTRFSAPASAGGYSVQLDALHFSTFEDSALTAMMAQKNLSPSLPGSILQPVQEENSKTSPRSHRSDGEFSPHSHYSDSDEAS
